The values that follow come from publication PMC10517019.

By UniProt entry, the sequences of proteins in these tests, tags left out. Where a name states a change or a piece, a line headed by the entry shows the natural chain unless it says otherwise.
UniProt Q9UKT8: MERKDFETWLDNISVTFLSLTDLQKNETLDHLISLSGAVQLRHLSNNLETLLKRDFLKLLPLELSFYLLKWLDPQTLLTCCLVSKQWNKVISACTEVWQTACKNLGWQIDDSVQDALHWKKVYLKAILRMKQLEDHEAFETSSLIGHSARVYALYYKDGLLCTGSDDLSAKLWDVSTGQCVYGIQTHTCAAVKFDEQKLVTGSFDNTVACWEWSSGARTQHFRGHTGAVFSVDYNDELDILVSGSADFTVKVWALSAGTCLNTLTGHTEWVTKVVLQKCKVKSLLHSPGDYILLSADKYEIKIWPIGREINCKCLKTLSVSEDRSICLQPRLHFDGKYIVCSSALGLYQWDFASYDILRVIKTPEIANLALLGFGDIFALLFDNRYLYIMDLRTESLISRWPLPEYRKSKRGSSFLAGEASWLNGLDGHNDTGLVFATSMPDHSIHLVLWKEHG
UniProt P26038: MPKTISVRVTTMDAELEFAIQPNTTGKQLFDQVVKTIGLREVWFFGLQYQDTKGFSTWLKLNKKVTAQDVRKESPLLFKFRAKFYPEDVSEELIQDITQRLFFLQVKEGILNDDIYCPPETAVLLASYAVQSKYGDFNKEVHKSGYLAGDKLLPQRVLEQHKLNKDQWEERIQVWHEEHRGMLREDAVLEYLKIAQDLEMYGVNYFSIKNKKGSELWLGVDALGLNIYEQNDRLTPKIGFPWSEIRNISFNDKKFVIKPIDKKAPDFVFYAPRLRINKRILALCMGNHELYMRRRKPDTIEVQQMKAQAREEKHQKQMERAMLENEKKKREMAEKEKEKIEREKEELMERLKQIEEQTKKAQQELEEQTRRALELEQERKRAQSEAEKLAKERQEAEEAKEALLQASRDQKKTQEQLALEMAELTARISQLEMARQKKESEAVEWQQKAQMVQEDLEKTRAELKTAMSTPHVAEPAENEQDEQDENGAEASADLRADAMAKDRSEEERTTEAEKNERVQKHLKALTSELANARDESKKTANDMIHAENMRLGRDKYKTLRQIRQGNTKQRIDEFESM

These are yes or no findings as the source states them, for the method shown. In cells and extracts the contact can be indirect. Binding calls can cover weak binding; strength is not graded here.

This assay addresses F-box motif-deleted FBXW2 mutant (FLAG-∆F-FBXW2) (UniProt Q9UKT8). Kind of assay: co-IP; MCF7 cells transfected with vector, FLAG-FL-FBXW2 or FLAG-∆F-FBXW2 36 h, 5 µM MG132 6 h; anti-FLAG immunoprecipitation, immunoblot (Fig. 4E); also FLAG-FBXW2 with or without 5 µM AKT inhibitor 12 h or AKT silencing (Fig. 6D). A general note: Immunoblotting shows a protein as a band on a membrane.

Consider “Membrane-organizing extension spike protein (Moesin), endogenous (from UniProt P26038 1-577)”, for which the binding result is recorded as “binds”.
